{"source": "PubChem BioAssay AID1259405 (NCATS, 2018)", "test": "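Mouse-designed siRNAs used to find CHO productivity engineering targets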 (primary screen)", "system": "Chinese hamster CHO-K1 ovary cells with stable secreted eGFP expression", "reagent": "single siRNA against mouse genes, 0.8 pmol siRNA per well (2 µl of 400 nM stock)", "timing": "3 days", "measurement": "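Percent of the per-plate non-targeting control median for intracellular GFP per well by laser scanning cytometry and for cell viability by ATP luminescence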", "scale": "GFP, % of control: higher = more GFP per well, higher productivity; viability (ATP), % of control: higher = more viable cells (more ATP)", "hit rule": "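a knock-down is called active if GFP reaches 120% or more of non-targeting control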", "note": "This is a random part of about 50,000 reagents. About 4,000 of all reagents (8%) count as active. 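Mouse siRNA library applied to hamster cells; one well for each siRNA.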 Entries without a mark were called inactive. The numbers tell different reagents against one gene apart."}
{"target":"Bambi (BMP and activin membrane-bound inhibitor)","reagent no.":1,"GFP, % of control":68.5,"viability (ATP), % of control":78.1}
{"target":"Bambi (BMP and activin membrane-bound inhibitor)","reagent no.":2,"GFP, % of control":81.4,"viability (ATP), % of control":78}
{"target":"Bambi (BMP and activin membrane-bound inhibitor)","reagent no.":3,"GFP, % of control":77.3,"viability (ATP), % of control":88}
{"target":"Paxbp1 (PAX3 and PAX7 binding protein 1)","reagent no.":1,"GFP, % of control":76.2,"viability (ATP), % of control":81.4}
{"target":"Paxbp1 (PAX3 and PAX7 binding protein 1)","reagent no.":2,"GFP, % of control":75.5,"viability (ATP), % of control":59.6}
{"target":"Paxbp1 (PAX3 and PAX7 binding protein 1)","reagent no.":3,"GFP, % of control":74.4,"viability (ATP), % of control":91.5}
{"target":"Add1 (adducin 1)","reagent no.":1,"GFP, % of control":64.9,"viability (ATP), % of control":75.5}
{"target":"Add1 (adducin 1)","reagent no.":2,"GFP, % of control":68.3,"viability (ATP), % of control":73.4}
{"target":"Add1 (adducin 1)","reagent no.":3,"GFP, % of control":68.4,"viability (ATP), % of control":88.9}
{"target":"Cort (cortistatin)","reagent no.":1,"GFP, % of control":66.2,"viability (ATP), % of control":59.8}
{"target":"Cort (cortistatin)","reagent no.":2,"GFP, % of control":70.7,"viability (ATP), % of control":54}
{"target":"Cort (cortistatin)","reagent no.":3,"GFP, % of control":38.7,"viability (ATP), % of control":43}
{"target":"Klhl36 (kelch-like 36)","reagent no.":1,"GFP, % of control":112,"viability (ATP), % of control":124}
{"target":"Klhl36 (kelch-like 36)","reagent no.":2,"GFP, % of control":77.4,"viability (ATP), % of control":79.8}
{"target":"Klhl36 (kelch-like 36)","reagent no.":3,"GFP, % of control":"153 (active)","viability (ATP), % of control":148}
{"target":"Pcdhb17 (protocadherin beta 17)","reagent no.":1,"GFP, % of control":79.3,"viability (ATP), % of control":84.4}
{"target":"Pcdhb17 (protocadherin beta 17)","reagent no.":2,"GFP, % of control":88.2,"viability (ATP), % of control":81.7}
{"target":"Prss46 (serine protease 46)","reagent no.":1,"GFP, % of control":88.6,"viability (ATP), % of control":58.4}
{"target":"Prss46 (serine protease 46)","reagent no.":2,"GFP, % of control":88.1,"viability (ATP), % of control":86.3}
{"target":"Prss46 (serine protease 46)","reagent no.":3,"GFP, % of control":57,"viability (ATP), % of control":82.8}
{"target":"Zmat2 (zinc finger, matrin type 2)","reagent no.":1,"GFP, % of control":97.9,"viability (ATP), % of control":94.6}
{"target":"Zmat2 (zinc finger, matrin type 2)","reagent no.":2,"GFP, % of control":116,"viability (ATP), % of control":71.8}
{"target":"Zmat2 (zinc finger, matrin type 2)","reagent no.":3,"GFP, % of control":86,"viability (ATP), % of control":94.8}
{"target":"H2ax (H2A.X variant histone)","reagent no.":1,"GFP, % of control":88.6,"viability (ATP), % of control":92.8}
{"target":"H2ax (H2A.X variant histone)","reagent no.":2,"GFP, % of control":57.3,"viability (ATP), % of control":88.3}
{"target":"H2ax (H2A.X variant histone)","reagent no.":3,"GFP, % of control":64.6,"viability (ATP), % of control":70.1}
{"target":"Kcnj15","reagent no.":1,"GFP, % of control":"128 (active)","viability (ATP), % of control":56.4}
{"target":"Kcnj15","reagent no.":2,"GFP, % of control":68.7,"viability (ATP), % of control":40.3}
{"target":"Kcnj15","reagent no.":3,"GFP, % of control":91.5,"viability (ATP), % of control":79.8}
{"target":"Svs6 (seminal vesicle secretory protein 6)","reagent no.":1,"GFP, % of control":"122 (active)","viability (ATP), % of control":84.8}
{"target":"Svs6 (seminal vesicle secretory protein 6)","reagent no.":2,"GFP, % of control":87.8,"viability (ATP), % of control":87.4}
{"target":"Svs6 (seminal vesicle secretory protein 6)","reagent no.":3,"GFP, % of control":92.9,"viability (ATP), % of control":109}
{"target":"Stt3a","reagent no.":1,"GFP, % of control":88.6,"viability (ATP), % of control":75.8}
{"target":"Stt3a","reagent no.":2,"GFP, % of control":"144 (active)","viability (ATP), % of control":47.9}
{"target":"Slc6a4","reagent no.":1,"GFP, % of control":98.8,"viability (ATP), % of control":88.6}
{"target":"Slc6a4","reagent no.":2,"GFP, % of control":27.8,"viability (ATP), % of control":26.6}
{"target":"Slc6a4","reagent no.":3,"GFP, % of control":95.4,"viability (ATP), % of control":108}
{"target":"Cuzd1 (CUB and zona pellucida-like domains 1)","reagent no.":1,"GFP, % of control":92,"viability (ATP), % of control":82.6}
{"target":"Cuzd1 (CUB and zona pellucida-like domains 1)","reagent no.":2,"GFP, % of control":73.4,"viability (ATP), % of control":98.8}
{"target":"Cuzd1 (CUB and zona pellucida-like domains 1)","reagent no.":3,"GFP, % of control":"128 (active)","viability (ATP), % of control":125}
{"target":"Tspan3 (tetraspanin 3)","reagent no.":1,"GFP, % of control":63.3,"viability (ATP), % of control":55.2}
{"target":"Tspan3 (tetraspanin 3)","reagent no.":2,"GFP, % of control":89.1,"viability (ATP), % of control":81.4}
{"target":"Tspan3 (tetraspanin 3)","reagent no.":3,"GFP, % of control":64.3,"viability (ATP), % of control":51.1}
{"target":"Zkscan17 (zinc finger with KRAB and SCAN domains 17)","reagent no.":1,"GFP, % of control":"143 (active)","viability (ATP), % of control":92}
{"target":"Zkscan17 (zinc finger with KRAB and SCAN domains 17)","reagent no.":2,"GFP, % of control":82.6,"viability (ATP), % of control":96.8}
{"target":"Zkscan17 (zinc finger with KRAB and SCAN domains 17)","reagent no.":3,"GFP, % of control":73.9,"viability (ATP), % of control":110}
{"target":"B4galnt4 (beta-1,4-N-acetyl-galactosaminyl transferase 4)","reagent no.":1,"GFP, % of control":56.9,"viability (ATP), % of control":48.8}
{"target":"B4galnt4 (beta-1,4-N-acetyl-galactosaminyl transferase 4)","reagent no.":2,"GFP, % of control":82.8,"viability (ATP), % of control":83.5}
{"target":"B4galnt4 (beta-1,4-N-acetyl-galactosaminyl transferase 4)","reagent no.":3,"GFP, % of control":64.2,"viability (ATP), % of control":40.4}
{"target":"Spock3","reagent no.":1,"GFP, % of control":"129 (active)","viability (ATP), % of control":79.4}
{"target":"Spock3","reagent no.":2,"GFP, % of control":88.7,"viability (ATP), % of control":91}
{"target":"Spock3","reagent no.":3,"GFP, % of control":81.7,"viability (ATP), % of control":67.9}

In a second layout: results already given
target,reagent no.,"GFP, % of control","viability (ATP), % of control"
Klhl36 (kelch-like 36),3,153 (active),148
Pcdhb17 (protocadherin beta 17),1,79.3,84.4
Pcdhb17 (protocadherin beta 17),2,88.2,81.7
Prss46 (serine protease 46),1,88.6,58.4
Prss46 (serine protease 46),2,88.1,86.3
Prss46 (serine protease 46),3,57,82.8
"Zmat2 (zinc finger, matrin type 2)",1,97.9,94.6
"Zmat2 (zinc finger, matrin type 2)",2,116,71.8
"Zmat2 (zinc finger, matrin type 2)",3,86,94.8
